Test results from the supplement of paper PMC3334620.
Over roughly 33,000 sequences, “E-score (-0.5 to 0.5)” has its median near -0.015; the highest 2% begin near 0.3. This is one part of the list.

Target: T1, Abf1 (UniProt P14164)
T1 sequence: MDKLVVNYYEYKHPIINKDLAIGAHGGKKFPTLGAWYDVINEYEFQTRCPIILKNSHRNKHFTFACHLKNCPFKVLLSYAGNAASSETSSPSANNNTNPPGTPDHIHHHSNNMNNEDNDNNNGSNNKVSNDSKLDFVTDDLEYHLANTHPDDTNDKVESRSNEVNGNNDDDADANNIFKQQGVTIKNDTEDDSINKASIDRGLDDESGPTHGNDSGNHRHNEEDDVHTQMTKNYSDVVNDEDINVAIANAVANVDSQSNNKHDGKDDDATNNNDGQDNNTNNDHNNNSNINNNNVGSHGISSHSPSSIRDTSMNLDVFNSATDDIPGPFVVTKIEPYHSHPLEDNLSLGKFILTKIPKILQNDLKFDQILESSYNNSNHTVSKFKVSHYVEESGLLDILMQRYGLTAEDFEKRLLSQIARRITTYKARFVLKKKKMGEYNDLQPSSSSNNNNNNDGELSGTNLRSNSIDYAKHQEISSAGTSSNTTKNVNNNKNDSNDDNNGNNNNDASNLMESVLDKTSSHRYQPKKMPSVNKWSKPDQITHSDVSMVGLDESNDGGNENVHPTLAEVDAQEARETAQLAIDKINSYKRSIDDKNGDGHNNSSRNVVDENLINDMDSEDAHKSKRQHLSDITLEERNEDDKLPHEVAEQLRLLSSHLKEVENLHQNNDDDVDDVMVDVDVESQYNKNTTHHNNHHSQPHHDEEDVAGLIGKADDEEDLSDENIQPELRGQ
Experiment: PBM E-score (8-mer binding enrichment) (E-score (-0.5 to 0.5)); higher = stronger / more preferred TF binding
Conditions: protein concentration: 200 nM; construct: GST-full length
Description: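 Universal 'all 10-mer' protein binding microarrays (Agilent AMADID 015681) probed with GST-tagged S. cerevisiae TFs (full-length or DBD) made by in vitro transcription/translation (PURExpress), about 100-200 nM. Bound TF was detected with fluorescent anti-GST. Each ungapped 8-mer (which stands for itself and its reverse complement) is scored by the PBM enrichment score (E-score), a modified Wilcoxon-Mann-Whitney statistic from -0.5 to +0.5, computed with the Universal PBM Analysis Suite. Scale: above 0.35 generally sequence-specific binding.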

Compared with GGTCTCAC, ATGGTACG is lower in “PBM E-score” value: 0.111 for the first, 0.035 for the second.

Going from CCCACGGA to AGATTAAT, the “PBM E-score” value rises from 0.0844 to 0.105.

First: AAGGGTGT
Second: AATTCGTG
The “PBM E-score” value of the first is lower: -0.191 for the first, 0.224 for the second.

Going from ATGCACAC to CGAACTTC, the “PBM E-score” value falls from 0.239 to 0.0195.

First: CAAAGCGA
Second: CCTTGCTC
The “PBM E-score” value of the first is higher: 0.0628 for the first, -0.316 for the second.

Compared with CATGATAG, CAGCCTGC is lower in “PBM E-score” value: 0.0986 for the first, -0.204 for the second.

Compared with CTAAGCGC, CCGTTCCG is higher in “PBM E-score” value: -0.121 for the first, 0.04 for the second.

First: CGATGTAC
Second: ACAAGCAA
The “PBM E-score” value of the first is higher: 0.184 for the first, 0.0194 for the second.

Going from AAGGACGG to GAATAATC, the “PBM E-score” value rises from -0.183 to 0.193.

First: CTCGGACC
Second: GTCTACAA
The “PBM E-score” value of the first is higher: 0.0621 for the first, 0.0458 for the second.

Going from AGACCCAG to ACCCGCCA, the “PBM E-score” value rises from -0.29 to -0.158.

Compared with ACCCCAGA, AGCTGCCG is higher in “PBM E-score” value: -0.248 for the first, -0.0478 for the second.

First: GTCTGAAA
Second: AACCGTAA
The “PBM E-score” value of the first is higher: 0.158 for the first, -0.0111 for the second.

Going from CAGATTAA to AAAACAAG, the “PBM E-score” value falls from 0.24 to 0.0429.

First: CGTGCGAG
Second: AAAGTCAG
The “PBM E-score” value of the first is higher: 0.137 for the first, 0.0858 for the second.

Compared with CGCATTAG, CTTACGAC is higher in “PBM E-score” value: -0.0276 for the first, 0.103 for the second.

Going from ACGCGTAC to GATACGCC, the “PBM E-score” value falls from 0.108 to -0.0576.

Compared with CAAACTGC, CAGTGTGG is lower in “PBM E-score” value: 0.0816 for the first, -0.119 for the second.

First: AGCACGTA
Second: GCCCCTAA
The “PBM E-score” value of the first is higher: -0.173 for the first, -0.289 for the second.

Compared with CTCTACGC, CAGCCTAC is higher in “PBM E-score” value: -0.216 for the first, -0.0347 for the second.

First: CGCGGGCA
Second: CCTCGCCG
The “PBM E-score” value of the first is higher: -0.0544 for the first, -0.264 for the second.

First: AAGCGCTA
Second: AAGCGTAT
The “PBM E-score” value of the first is higher: 0.0756 for the first, -0.0642 for the second.

First: AATTAACT
Second: ACGGGCGC
The “PBM E-score” value of the first is higher: 0.248 for the first, 0.186 for the second.

First: CAAGTATC
Second: ACATCGCA
The “PBM E-score” value of the first is lower: 0.0524 for the first, 0.204 for the second.

Going from GCTTCGTA to CATCAGGC, the “PBM E-score” value falls from 0.313 to -0.0701.

Going from ATATGCTG to CAAGATGC, the “PBM E-score” value rises from -0.0426 to 0.148.

Going from GCAATACA to GCCCGTTA, the “PBM E-score” value falls from -0.0924 to -0.222.

Going from CCCCCATA to AGTCACTA, the “PBM E-score” value rises from -0.28 to 0.315.

First: ACGAGGTG
Second: ATAAAATC
The “PBM E-score” value of the first is higher: 0.185 for the first, 0.182 for the second.

Compared with ATCGTTAC, GCCCGAGC is lower in “PBM E-score” value: 0.065 for the first, -0.0863 for the second.

Compared with TCACATAA, ACAATGTA is lower in “PBM E-score” value: 0.22 for the first, -0.00324 for the second.

Compared with GAGAGTAA, ATAGGTTG is lower in “PBM E-score” value: -0.00292 for the first, -0.183 for the second.

Compared with ACCACGCT, ACAGTTAT is higher in “PBM E-score” value: -0.0224 for the first, 0.0217 for the second.

Compared with AGCTAGCA, AGGTCGGG is lower in “PBM E-score” value: -0.00139 for the first, -0.28 for the second.

Compared with GCAGAAGC, GACGCTCA is higher in “PBM E-score” value: -0.0737 for the first, 0.0668 for the second.

Going from AGTTTAAA to AGATGTTG, the “PBM E-score” value falls from 0.105 to -0.03.

Compared with ATGAGGGA, GACCCCAA is higher in “PBM E-score” value: -0.139 for the first, -0.136 for the second.

First: AGCCAGGG
Second: ACTGGATG
The “PBM E-score” value of the first is lower: -0.156 for the first, -0.0266 for the second.

First: AATGCAGT
Second: CCATGTGC
The “PBM E-score” value of the first is lower: -0.0778 for the first, -0.0552 for the second.

Going from CCTGCGAC to CAGCAGCG, the “PBM E-score” value rises from -0.0961 to -0.00598.

First: CCACACCG
Second: AGCCTCTC
The “PBM E-score” value of the first is higher: 0.00453 for the first, -0.267 for the second.

First: AGATAAAC
Second: CAGTCCAG
The “PBM E-score” value of the first is higher: 0.155 for the first, -0.235 for the second.

Compared with CGTAAGCA, CTTGGGGC is lower in “PBM E-score” value: -0.218 for the first, -0.247 for the second.

Compared with CGGGCCAG, GGCCCAAA is lower in “PBM E-score” value: -0.212 for the first, -0.262 for the second.

First: AAGACATG
Second: CAGCGCAA
The “PBM E-score” value of the first is higher: -0.0258 for the first, -0.105 for the second.

First: ATCATGAA
Second: GAATGTGC
The “PBM E-score” value of the first is lower: 0.121 for the first, 0.15 for the second.

Compared with ACTGGACC, ATTGAGCC is higher in “PBM E-score” value: -0.149 for the first, 0.0551 for the second.

Compared with CAGTCTCC, CATAAAGG is higher in “PBM E-score” value: -0.123 for the first, -0.12 for the second.

Going from CAGTTTGC to CCTCCTAA, the “PBM E-score” value falls from -0.0252 to -0.109.

Compared with ATAAAAAC, CACCAGGC is lower in “PBM E-score” value: 0.277 for the first, -0.066 for the second.

Compared with GATAGACC, CACCTAAG is higher in “PBM E-score” value: 0.0194 for the first, 0.0751 for the second.

First: TAAGTAGA
Second: TATAAGGA
The “PBM E-score” value of the first is higher: 0.133 for the first, 0.0273 for the second.

First: CACCGATA
Second: ATCTCAGA
The “PBM E-score” value of the first is higher: 0.0799 for the first, 0.0428 for the second.

Compared with CCCTTCAG, AGTTATGG is higher in “PBM E-score” value: -0.197 for the first, -0.0478 for the second.

First: GATGTACC
Second: GAAGCCCA
The “PBM E-score” value of the first is higher: 0.136 for the first, -0.161 for the second.

Compared with AACCGGGC, GACTACGA is higher in “PBM E-score” value: -0.103 for the first, 0.128 for the second.

First: ATGATGCC
Second: ATTCACGC
The “PBM E-score” value of the first is higher: 0.0807 for the first, 0.00975 for the second.

Compared with TATGGTCA, CCGGCAGG is lower in “PBM E-score” value: 0.216 for the first, -0.234 for the second.

First: CCTTTGAG
Second: CTCATATC
The “PBM E-score” value of the first is higher: -0.0864 for the first, -0.0957 for the second.

First: AGCTGTAA
Second: CCGGTGCA
The “PBM E-score” value of the first is higher: -0.105 for the first, -0.121 for the second.

First: CGTCGCAA
Second: CGTCGGCA
The “PBM E-score” value of the first is higher: 0.203 for the first, 0.0993 for the second.

Going from CCCTGCGA to CCTACCAA, the “PBM E-score” value rises from -0.0803 to 0.162.

Going from AGGGTGCA to CGGCGTGA, the “PBM E-score” value rises from -0.172 to -0.168.

Going from CTTTCTGA to AACTTGAA, the “PBM E-score” value falls from 0.08 to -0.0376.

Compared with AATCCGCT, GCACAGGA is higher in “PBM E-score” value: -0.131 for the first, -0.126 for the second.

Compared with GTCAAAGA, AAATCACC is higher in “PBM E-score” value: 0.0864 for the first, 0.336 for the second.

First: GGATATAC
Second: CATTCCGC
The “PBM E-score” value of the first is higher: -0.053 for the first, -0.213 for the second.

First: ATAGACAG
Second: TACGTAGA
The “PBM E-score” value of the first is lower: -0.0601 for the first, 0.138 for the second.

First: ACAGCTCA
Second: AAGTATTC
The “PBM E-score” value of the first is lower: -0.0214 for the first, 0.012 for the second.

Compared with AGAGTGCT, CTCGGTTC is higher in “PBM E-score” value: -0.0358 for the first, -0.0328 for the second.

First: CGGCGTTA
Second: ATCATAAT
The “PBM E-score” value of the first is lower: -0.0175 for the first, 0.217 for the second.

Going from AACGCCTT to CAGCTCAA, the “PBM E-score” value rises from -0.142 to 0.00284.

First: ATTTGGCC
Second: ACTGCCCA
The “PBM E-score” value of the first is lower: -0.148 for the first, -0.0787 for the second.

Compared with CGTGAAAG, ATTATCCC is lower in “PBM E-score” value: 0.29 for the first, 0.17 for the second.

Compared with ATGCGCAA, ACCAGCTA is higher in “PBM E-score” value: -0.131 for the first, 0.131 for the second.

First: TGCAAGCA
Second: CGTCATTC
The “PBM E-score” value of the first is lower: -0.0425 for the first, 0.288 for the second.

First: AGATGATC
Second: GTCTGCGA
The “PBM E-score” value of the first is higher: 0.176 for the first, -0.0886 for the second.

Going from AGTCGTCG to CCATAGGG, the “PBM E-score” value falls from 0.00151 to -0.1.

Going from CTAAGTGC to CATGCCTC, the “PBM E-score” value rises from -0.0207 to 0.0707.

First: CATGCTCA
Second: AGCCTTCG
The “PBM E-score” value of the first is higher: -0.0836 for the first, -0.214 for the second.

Going from AGAGGGTG to GCCGCGTA, the “PBM E-score” value rises from -0.0758 to -0.0622.

First: AGTAGGCC
Second: AACTGGTC
The “PBM E-score” value of the first is lower: -0.134 for the first, -0.0107 for the second.

Compared with CTAGCGGC, GTAGCTAA is higher in “PBM E-score” value: -0.271 for the first, 0.0111 for the second.

First: CAGGCAGA
Second: GAAGCGAC
The “PBM E-score” value of the first is lower: -0.144 for the first, 0.185 for the second.

Compared with AAGCCTAT, ATCGTGGA is higher in “PBM E-score” value: -0.125 for the first, 0.165 for the second.

First: CGAGGATA
Second: AAAGGCGT
The “PBM E-score” value of the first is higher: 0.0582 for the first, -0.159 for the second.
